# Laboratory results reported in patent US20220332829A1.
# Results are given in words; binding and its absence hold for the method and conditions named. A result given as binding can be weak or reduced; the word gives no strength.
# B1: hu51-G34K-12 (antibody, human IgG1, V domains shown)
# VH: EVQLVESGGGLVKPGGSLRLSCAASGFTFSSFGMSWVRQAPGKGLEWVATINSGDNYSYSPDSVKGRFTISRDNAKNSLYLQMNSLRAEDTAVYYCARPHIFYYGSPAWFAYWGQGTLVTVSS
# VL: DVVMTQSPLSLPVTLGQPASISCRSRQSLVHSNKNTYLHWFQQRPGQSPRLLIYKVSNRFSGVPDRFSGSGSGTDFTLKISRVEAEDVGVYYCSQSTHVPLTFGGGTKVEIK
# B2: hu65-13 (antibody, human IgG1, V domains shown)
# VH: EVQLVESGGGLVQPGGSLRLSCAASGFTFSDYGIHWVRQAPGKGLEWVSYISSGSNTIYYADTVKGRFTISRDNAKNSLYLQMNSLRAEDTAVYYCATMVTRWFYYAMDYWGQGTTVTVSS
# VL: EIVLTQSPATLSLSPGERATLSCSASSSVSYMYWYQQKPGQAPRRLIYDTSKLASGVPARFSGSGSGTDYTLTISSLEPEDFAVYYCQQWSSNPPTFGQGTKLEIK
# Assays:
# [1] = biological target: Cynomolgus B7-H3-His (Sino Biological, Cat. No. 90806-C08H) (cynomolgus monkey); assay: ELISA, plate coated with cynomolgus B7-H3-His
# [2] = biological target: Cynomolgus B7-H3-His (Sino Biological, Cat. No. 90806-C08H) (cynomolgus monkey); assay: ELISA, plate coated with cynomolgus B7-H3-His, detection with anti-human IgG HRP, OD450
Binder,binding [1],binding [2]
B1,binds,binds
B2,binds,–
